Some results were stated once for a whole list of compounds, not compound by compound.
Columns and labels:
hEP2 = target: T1, hEP2 (Homo sapiens, UniProt P43116); experiment: hEP2 cAMP assay; format: cell-based; settings: summary in words of Tables 22 to 25
T1 construct: expressed in transfected cells; host or cells: HEK293

By UniProt entry, the sequences of proteins in these tests, tags left out. Where a name states a change or a piece, a line headed by the entry shows the natural chain unless it says otherwise.
UniProt P43116: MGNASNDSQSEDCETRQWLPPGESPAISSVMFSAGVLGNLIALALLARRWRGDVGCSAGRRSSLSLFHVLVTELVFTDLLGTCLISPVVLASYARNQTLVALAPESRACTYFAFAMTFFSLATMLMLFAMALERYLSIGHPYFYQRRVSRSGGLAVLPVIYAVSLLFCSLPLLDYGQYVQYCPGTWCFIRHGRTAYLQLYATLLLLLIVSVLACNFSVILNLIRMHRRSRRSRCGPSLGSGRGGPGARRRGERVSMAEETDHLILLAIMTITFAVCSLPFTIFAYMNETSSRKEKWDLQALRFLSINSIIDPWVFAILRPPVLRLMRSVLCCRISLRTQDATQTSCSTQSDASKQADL
UniProt P35408: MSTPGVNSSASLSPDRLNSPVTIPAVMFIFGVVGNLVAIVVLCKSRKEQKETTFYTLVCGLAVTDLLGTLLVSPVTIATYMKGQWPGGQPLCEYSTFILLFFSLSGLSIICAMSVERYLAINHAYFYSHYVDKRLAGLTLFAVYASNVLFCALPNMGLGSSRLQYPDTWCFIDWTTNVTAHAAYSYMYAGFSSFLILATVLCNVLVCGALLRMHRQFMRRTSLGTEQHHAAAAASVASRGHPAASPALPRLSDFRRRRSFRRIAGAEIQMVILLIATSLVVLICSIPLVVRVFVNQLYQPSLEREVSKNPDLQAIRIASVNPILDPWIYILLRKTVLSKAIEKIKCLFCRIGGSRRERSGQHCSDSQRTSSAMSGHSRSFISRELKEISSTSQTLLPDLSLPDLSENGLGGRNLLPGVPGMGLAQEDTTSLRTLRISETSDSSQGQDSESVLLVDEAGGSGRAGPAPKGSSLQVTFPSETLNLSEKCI

hEP4 = target: T2, hEP4 (Homo sapiens, UniProt P35408); experiment: hEP4 cAMP assay; format: cell-based; settings: summary in words of Tables 22 to 25
T2 construct: expressed in transfected cells; host or cells: HEK293

COc1cc(-c2ccc(Cc3c(C)sc(C)c3C(=O)NC3CC4(C3)CC(C(=O)O)C4)cc2)cc(N2CCC2=O)c1 [Example 63, (2R, 4R, 6R)-6-(4-((3′-methoxy-5′-(2-oxoazetidin-1-yl)-[1,1′-biphenyl]-4-yl)methyl)-2,5-dimethylthiophene-3-carboxamido)spiro[3.3]heptane-2-carboxylic acid]
inhibitory activity on EP2 (hEP2): excellent inhibitory activity
inhibitory activity on EP4 (hEP4): excellent inhibitory activity

Cc1sc(C)c(C(=O)NC2CC3(C2)CC(C(=O)O)C3)c1Cc1ccc(-c2cc(F)cc(F)c2)cc1 (stereo not drawn) [Example 52, 6-(4-((3′,5′-difluoro-[1,1′-biphenyl]-4-yl)methyl)-2,5-dimethylthiophene-3-carboxamido)spiro[3.3]heptane-2-carboxylic acid]
inhibitory activity on EP2 (hEP2): excellent inhibitory activity
inhibitory activity on EP4 (hEP4): excellent inhibitory activity

COc1cc(F)cc(-c2ccc(Cc3c(C)sc(C)c3C(=O)NC3CC4(C3)CC(C(=O)O)C4)cc2)c1 (stereo not drawn) [Example 34, 6-(4-((3′-fluoro-5′-methoxy-[1,1′-biphenyl]-4-yl)methyl)-2,5-dimethylthiophene-3-carboxamido)spiro[3.3]heptane-2-carboxylic acid]
inhibitory activity on EP2 (hEP2): excellent inhibitory activity
inhibitory activity on EP4 (hEP4): excellent inhibitory activity

Cc1sc(C)c(C(=O)NC2CC3(C2)CC(C(=O)O)C3)c1Cc1ccc(-c2cccc(C#N)c2)cc1 (stereo not drawn) [Example 30, 6-(4-((3′-cyano-[1,1′-biphenyl]-4-yl)methyl)-2,5-dimethylthiophene-3-carboxamido)spiro[3.3]heptane-2-carboxylic acid]
inhibitory activity on EP2 (hEP2): excellent inhibitory activity
inhibitory activity on EP4 (hEP4): excellent inhibitory activity

Cc1sc2ccn(CC#Cc3ccccc3)c2c1C(=O)NC1CC2(C1)CC(C(=O)O)C2 (stereo not drawn) [Example 96, 6-(2-methyl-4-(3-phenylprop-2-yn-1-yl)-4H-thieno[3,2-b]pyrrole-3-carboxamido)spiro[3.3]heptane-2-carboxylic acid]
inhibitory activity on EP2 (hEP2): excellent inhibitory activity
inhibitory activity on EP4 (hEP4): excellent inhibitory activity

O=C(N[C@]12C[C@](C(=O)O)(C1)C2)c1csc2ccn(Cc3ccc(-c4ccccc4)cc3)c12 [Example 87, 3-(4-([1,1′-biphenyl]-4-ylmethyl)-4H-thieno[3,2-b]pyrrole-3-carboxamido)bicyclo[1.1.1]pentane-1-carboxylic acid]
inhibitory activity on EP2 (hEP2): excellent inhibitory activity
inhibitory activity on EP4 (hEP4): excellent inhibitory activity

COc1ccc(-c2ccc(Cc3c(C)sc(C)c3C(=O)NC3CC4(C3)CC(C(=O)O)C4)cc2)cc1F (stereo not drawn) [Example 40, 6-(4-((3′-fluoro-4′-methoxy-[1,1′-biphenyl]-4-yl)methyl)-2,5-dimethylthiophene-3-carboxamido)spiro[3.3]heptane-2-carboxylic acid]
inhibitory activity on EP2 (hEP2): excellent inhibitory activity
inhibitory activity on EP4 (hEP4): excellent inhibitory activity

Cc1sc(C)c(C(=O)NC2CC3(C2)CC(C(=O)O)C3)c1Cc1ccc(Oc2ccccc2)cc1 (stereo not drawn) [Example 5, 6-(2,5-dimethyl-4-(4-phenoxybenzyl)thiophene-3-carboxamido) spiro[3.3]heptane-2-carboxylic acid]
inhibitory activity on EP2 (hEP2): excellent inhibitory activity
inhibitory activity on EP4 (hEP4): excellent inhibitory activity

Cc1sc(C)c(C(=O)NC2CC3(C2)CC(C(=O)O)C3)c1Cc1ccc(-c2ccccc2)c(N)c1 (stereo not drawn) [Example 8, 6-(4-((2-amino-[1,1′-biphenyl]-4-yl)methyl)-2,5-dimethylthiophene-3-carboxamido)spiro[3.3]heptane-2-carboxylic acid]
inhibitory activity on EP2 (hEP2): excellent inhibitory activity
inhibitory activity on EP4 (hEP4): excellent inhibitory activity

COc1cc(CN)cc(-c2ccc(Cc3c(C)sc(C)c3C(=O)NC3CC4(C3)CC(C(=O)O)C4)cc2)c1 (stereo not drawn) [Example 66, 6-(4-((3′-(aminomethyl)-5′-methoxy-[1,1′-biphenyl]-4-yl)methyl)-2,5-dimethylthiophene-3-carboxamido)spiro[3.3]heptane-2-carboxylic acid]
inhibitory activity on EP2 (hEP2): excellent inhibitory activity
inhibitory activity on EP4 (hEP4): excellent inhibitory activity

Cc1sc(C)c(C(=O)NC2CC3(C2)CC(C(=O)O)C3)c1Cc1ccc(-c2cc(F)cc(CO)c2)cc1 (stereo not drawn) [Example 60, 6-(4-((3′-fluoro-5′-(hydroxymethyl)-[1,1′-biphenyl]-4-yl)methyl)-2,5-dimethylthiophene-3-carboxamido)spiro[3.3]heptane-2-carboxylic acid]
inhibitory activity on EP2 (hEP2): excellent inhibitory activity
inhibitory activity on EP4 (hEP4): excellent inhibitory activity

Cc1sc(C)c(C(=O)NC2CC3(C2)CC(C(=O)O)C3)c1Cc1ccc(-c2ccccc2)cc1F (stereo not drawn) [Example 7, 6-(4-((3-fluoro-[1,1′-biphenyl]-4-yl)methyl)-2,5-dimethylthiophene-3-carboxamido)spiro[3.3]heptane-2-carboxylic acid]
inhibitory activity on EP2 (hEP2): excellent inhibitory activity
inhibitory activity on EP4 (hEP4): excellent inhibitory activity

COc1cc(-c2ccc(Cc3c(C)sc(C)c3C(=O)NC3CC4(C3)CC(C(=O)O)C4)cc2)cc(N2CCC2=O)c1 (stereo not drawn) [Example 62, 6-(4-((3′-methoxy-5′-(2-oxoazetidin-1-yl)-[1,1′-biphenyl]-4-yl)methyl)-2,5-dimethylthiophene-3-carboxamido)spiro[3.3]heptane-2-carboxylic acid]
inhibitory activity on EP2 (hEP2): excellent inhibitory activity
inhibitory activity on EP4 (hEP4): excellent inhibitory activity

O=C(N[C@H]1C[C@H](C(=O)O)C1)c1csc2ccn(Cc3ccc(-c4ccccc4)cc3)c12 [Example 83, (1R,3R)-3-(4-([1,1′-biphenyl]-4-ylmethyl)-4H-thieno[3,2-b]pyrrole-3-carboxamido)cyclobutane-1-carboxylic acid]
inhibitory activity on EP2 (hEP2): excellent inhibitory activity
inhibitory activity on EP4 (hEP4): excellent inhibitory activity

COc1cc(F)cc(-c2ccc(Cn3ccc4scc(C(=O)NC5CC6(C5)CC(C(=O)O)C6)c43)cc2)c1 [Example 86, (2R,4R,6R)-6-(4-((3′-fluoro-5′-methoxy-[1,1′-biphenyl]-4-yl)methyl)-4H-thieno[3,2-b]pyrrole-3-carboxamido)spiro[3.3]heptane-2-carboxylic acid]
inhibitory activity on EP2 (hEP2): excellent inhibitory activity
inhibitory activity on EP4 (hEP4): excellent inhibitory activity

COc1cc(F)cc(-c2ccc(Cn3ccc4sc(C)c(C(=O)NC5CC6(C5)CC(C(=O)O)C6)c43)cc2)c1 (stereo not drawn) [Example 95, 6-(4-((3′-fluoro-5′-methoxy-[1,1′-biphenyl]-4-yl)methyl)-2-methyl-4H-thieno[3,2-b]pyrrole-3-carboxamido)spiro[3.3]heptane-2-carboxylic acid]
inhibitory activity on EP2 (hEP2): excellent inhibitory activity
inhibitory activity on EP4 (hEP4): excellent inhibitory activity

Cc1sc(C)c(C(=O)NC2CC3(C2)CC(C(=O)O)C3)c1Oc1ccc(-c2ccccc2)cc1 (stereo not drawn) [Example 74, 6-(4-([1,1′-biphenyl]-4-yloxy)-2,5-dimethylthiophene-3-carboxamido)spiro[3.3]heptane-2-carboxylic acid]
inhibitory activity on EP2 (hEP2): excellent inhibitory activity
inhibitory activity on EP4 (hEP4): excellent inhibitory activity

O=C(NC1CC2(C1)CC(C(=O)O)C2)c1c(Cl)sc2ccn(Cc3ccc(-c4ccccc4)cc3)c12 (stereo not drawn) [Example 82, 6-(4-([1,1′-biphenyl]-4-ylmethyl)-2-chloro-4H-thieno[3,2-b]pyrrole-3-carboxamido)spiro[3.3]heptane-2-carboxylic acid]
inhibitory activity on EP2 (hEP2): excellent inhibitory activity
inhibitory activity on EP4 (hEP4): excellent inhibitory activity

Cc1sc(C)c(C(=O)NC2CC3(C2)CC(C(=O)O)C3)c1Cc1ccc(-c2cc(N)cc(F)c2)cc1 (stereo not drawn) [Example 54, 6-(4-((3′-amino-5′-fluoro-[1,1′-biphenyl]-4-yl)methyl)-2,5-dimethylthiophene-3-carboxamido)spiro[3.3]heptane-2-carboxylic acid]
inhibitory activity on EP2 (hEP2): excellent inhibitory activity
inhibitory activity on EP4 (hEP4): excellent inhibitory activity

COc1cccc(-c2ccc(Cc3c(C)sc(C)c3C(=O)NC3CC4(C3)CC(C(=O)O)C4)cc2)c1 (stereo not drawn) [Example 29, 6-(4-((3′-methoxy-[1,1′-biphenyl]-4-yl)methyl)-2,5-dimethylthiophene-3-carboxamido)spiro[3.3]heptane-2-carboxylic acid]
inhibitory activity on EP2 (hEP2): excellent inhibitory activity
inhibitory activity on EP4 (hEP4): excellent inhibitory activity

O=C(NC1CC2(C1)CC(C(=O)O)C2)c1csc(C2CC2)c1Cc1ccc(-c2ccccc2)cc1 (stereo not drawn) [Example 22]
inhibitory activity on EP2 (hEP2): excellent inhibitory activity
inhibitory activity on EP4 (hEP4): excellent inhibitory activity

O=C(N[C@H]1C[C@@H](C(=O)O)C1)c1csc2ccn(Cc3ccc(-c4ccccc4)cc3)c12 [Example 84, (1S,3S)-3-(4-([1,1′-biphenyl]-4-ylmethyl)-4H-thieno[3,2-b]pyrrole-3-carboxamido)cyclobutane-1-carboxylic acid]
inhibitory activity on EP2 (hEP2): excellent inhibitory activity
inhibitory activity on EP4 (hEP4): excellent inhibitory activity

Cc1sc(C)c(C(O)c2ccc(-c3ccccc3)cc2)c1C(=O)NC1CC2(C1)CC(C(=O)O)C2 (stereo not drawn) [Example 11, 6-(4-([1,1′-biphenyl]-4-yl(hydroxy)methyl)-2,5-dimethylthiophene-3-carboxamido)spiro[3.3]heptane-2-carboxylic acid]
inhibitory activity on EP2 (hEP2): excellent inhibitory activity
inhibitory activity on EP4 (hEP4): excellent inhibitory activity

Cc1sc2ccn(Cc3ccc(-c4ccccc4)cc3)c2c1C(=O)NC1CC2(C1)CC(C(=O)O)C2 (stereo not drawn) [Example 80, 6-(4-([1,1′-biphenyl]-4-ylmethyl)-2-methyl-4H-thieno[3,2-b]pyrrole-3-carboxamido)spiro[3.3]heptane-2-carboxylic acid]
inhibitory activity on EP2 (hEP2): excellent inhibitory activity
inhibitory activity on EP4 (hEP4): excellent inhibitory activity

Source: US20250161271A1, “PHARMACEUTICAL COMPOSITION FOR TREATING CANCER, COMPRISING ANTICANCER AGENT AND NOVEL COMPOUND HAVING INHIBITORY ACTIVITY WITH RESPECT TO PROSTAGLANDIN E2 RECEPTORS” (KANAPH THERAPEUTICS INC., priority 2022, published 2025)
